Results deposited as PubChem BioAssay AID504793 (Drosophila RNAi Screening Center, 2011).

Screen: 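Whole-genome screen for parts of the DNA damage checkpoint at G2/M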 (primary screen)
Cell system: Drosophila S2R+ cells
Reagents: long dsRNA against Drosophila genes, about 0.25 µg dsRNA per well
Timing: 4 days of dsRNA, then 4 hours of drug before read-out
Challenge: doxorubicin 0.5 µM for 4 hours to cause double-strand breaks, in cells also given a low, harmless dose of dsRNA against nbs to sensitise the assay
Detection: 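Per-well count of mitotic cells stained for phospho-histone H3 after doxorubicin exposure, used as mitotic index; counts are raw and not normalised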
Reading the numbers: mitotic cells: higher = more cells in mitosis, weaker G2 arrest
Rule for the call: 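Genes are called active only when high mitotic counts were reproduced with independent dsRNAs and mitosis was checked for delay without damage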
Calls: active = confirmed in follow-up tests; inactive = not confirmed
The deposit covers about 23,000 reagents; this is an unselected part of those with a known target gene and a result. Of all reagents, 62 (0.27%) got an active call. 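Calls come from follow-up tests whose scores are not deposited, so confirmed genes may have low counts here; counts are not normalised per plate.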 Raw values are not corrected between plates. Unmarked entries are inactive. Reagents against one gene are numbered here. A plus sign joins genes that one reagent is predicted to hit.

mitotic cells, replicate 1, by target gene and reagent
CheB53b (Chemosensory protein B 53b): #1 8; #2 5
CG11566 (retired record) + stg1: #1 2; #2 10; #3 7; #4 9
RanBP3 (Ran binding protein 3): #1 15; #2 2
Mcad (Medium-chain acyl-CoA dehydrogenase): #1 9; #2 7
Npc1a (Niemann-Pick type C-1a): #1 6
Ufl1 (UFM1 specific ligase 1): #1 6
CG11257: #1 7
AANATL6 (Arylalkylamine N-acetyltransferase-like 6): #1 11
Ir93a (Ionotropic receptor 93a): #1 7; #2 9; #3 6
CG31917 + Tfb5: #1 9; #2 5
CG31759: #1 10
caly (calypso): #1 8
CG15773: #1 6
CG12880: #1 6
CG6761: #1 5
CG17648: #1 3
Oat (Ornithine aminotransferase precursor): #1 5
CG11601: #1 10
CG16868: #1 2
Kaz-m1 (Kazal-type protease inhibitor m1): #1 10
GluRIA (Glutamate receptor IA): #1 9
Cyp28d2 (Cytochrome P450 28d2): #1 3; #2 3
Miga (Mitoguardin): #1 21
TwdlM (TweedleM): #1 11
ckd (cracked): #1 1
comm (commissureless): #1 12; #2 7
Ripalpha (RPA-interacting protein alpha): #1 6
Xport-A + Xport-B: #1 12
COX4L (Cytochrome c oxidase subunit 4-like): #1 8
Sec6 (Secretory 6): #1 5
spz6 (spatzle 6): #1 6
chico: #1 2
CG31897: #1 11
side-IV + CG17025 (retired record): #1 5

7 of these entries, set out differently.
Target gene	dsRNA no.	mitotic cells, replicate 1
Xport-A + Xport-B	1	12
COX4L (Cytochrome c oxidase subunit 4-like)	1	8
Sec6 (Secretory 6)	1	5
spz6 (spatzle 6)	1	6
chico	1	2
CG31897	1	11
side-IV + CG17025 (retired record)	1	5
